Measurements from patent US10765675B2, “Compositions and methods for treating Ewing family tumors” (priority 2015, dated 2020).
Where a name gives a salt, the structure may show the parent alone.

Key:
TC-32 cells = experiment: cells; conditions: Homo sapiens, TC-32, 24 h, read-out: EC50 (concentration of drug that inhibits growth of the tumor cells by 50% as compared to vehicle-treated control)
Text: (§1) The combination index (CI) accounts for the dose response of single drugs to determine the combination effect. […] Enzyme Regul. 22:27-55. The equation for calculating CI is as follows: […]

TC-71 cells = experiment: cells; conditions: Homo sapiens, TC-71, 24 h, read-out: EC50 (concentration of drug that inhibits growth of the tumor cells by 50% as compared to vehicle-treated control)
Text: as §1

With Cc1ccc(NC(=O)c2ccc(CN3CCN(C)CC3)cc2)cc1Nc1nccc(-c2cccnc2)n1 [imatinib, imatinib mesylate] the EC50 (TC-32 cells) was 44.4 µM and the EC50 (TC-71 cells) was 23.7 µM.
